The exact form of at least one protein or probe is not confirmed.
System: GST-OsbZIP48 (Oryza sativa cv. Nipponbare)
Assay: EMSA

Row | Sequence | binding result
1 | AGGAGAGGTTAACATCGACACCGCCGTCGACCTCAACA (double strand) [EM-ZIP4 (OsZIP4 promoter ZDRE probe)] | binds
2 | CTTCTTATTTACTAATTTCTTCTCTCTCTGTCGACGTCAGGAAAATACTACAAATCAGCAGCCTGGTGGATTGGACG (double strand) [EM-ZIP8 (OsZIP8 promoter ZDRE probe)] | binds
